For the experiment, the target named is HIPK2Δp53 (UniProt Q9H2X6). Nature of the experiment: co-IP; HEK 293T cells co-transfected with HIPK2Δp53, Axin and MDM2 or MDM2 (C464A) in different combinations; immunoprecipitation and western blot (Figure 5C); which protein was precipitated is not told.

By UniProt entry, the sequences of proteins in these tests, tags left out. Where a name states a change or a piece, a line headed by the entry shows the natural chain unless it says otherwise. Chains listed by the source or under a name are the forms on record and can include a tag or linker.
UniProt Q9H2X6: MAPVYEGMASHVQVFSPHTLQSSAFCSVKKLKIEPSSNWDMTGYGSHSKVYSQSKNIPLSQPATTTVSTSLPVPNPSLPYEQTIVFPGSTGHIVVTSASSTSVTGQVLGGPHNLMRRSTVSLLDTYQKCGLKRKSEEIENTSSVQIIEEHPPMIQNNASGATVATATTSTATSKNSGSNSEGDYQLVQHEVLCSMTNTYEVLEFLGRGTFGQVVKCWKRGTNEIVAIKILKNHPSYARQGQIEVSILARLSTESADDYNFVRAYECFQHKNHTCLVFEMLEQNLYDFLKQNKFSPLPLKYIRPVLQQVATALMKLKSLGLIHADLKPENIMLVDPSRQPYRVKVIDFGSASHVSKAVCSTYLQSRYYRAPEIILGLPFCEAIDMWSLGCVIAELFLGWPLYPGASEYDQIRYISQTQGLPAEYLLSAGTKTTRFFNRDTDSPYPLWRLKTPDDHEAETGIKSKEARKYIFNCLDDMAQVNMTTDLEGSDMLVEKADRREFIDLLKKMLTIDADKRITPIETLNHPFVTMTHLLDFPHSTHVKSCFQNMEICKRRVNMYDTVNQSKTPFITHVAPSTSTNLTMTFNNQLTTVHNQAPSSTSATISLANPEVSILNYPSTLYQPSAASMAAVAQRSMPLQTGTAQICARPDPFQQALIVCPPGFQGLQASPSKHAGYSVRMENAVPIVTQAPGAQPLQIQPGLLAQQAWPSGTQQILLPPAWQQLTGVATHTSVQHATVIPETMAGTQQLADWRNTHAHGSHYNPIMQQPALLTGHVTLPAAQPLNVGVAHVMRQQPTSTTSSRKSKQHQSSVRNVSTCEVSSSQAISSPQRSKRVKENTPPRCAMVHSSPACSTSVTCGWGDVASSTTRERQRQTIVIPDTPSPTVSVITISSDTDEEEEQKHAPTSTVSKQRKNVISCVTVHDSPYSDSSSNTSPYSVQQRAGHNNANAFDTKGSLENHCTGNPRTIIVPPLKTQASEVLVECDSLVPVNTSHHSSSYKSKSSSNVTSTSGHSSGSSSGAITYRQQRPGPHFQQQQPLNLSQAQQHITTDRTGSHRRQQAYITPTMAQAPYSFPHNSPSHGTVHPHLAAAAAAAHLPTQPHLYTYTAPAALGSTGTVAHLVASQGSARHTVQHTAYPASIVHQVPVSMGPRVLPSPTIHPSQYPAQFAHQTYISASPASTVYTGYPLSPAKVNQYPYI
Myc-MDM2 (Q00987-11, form named): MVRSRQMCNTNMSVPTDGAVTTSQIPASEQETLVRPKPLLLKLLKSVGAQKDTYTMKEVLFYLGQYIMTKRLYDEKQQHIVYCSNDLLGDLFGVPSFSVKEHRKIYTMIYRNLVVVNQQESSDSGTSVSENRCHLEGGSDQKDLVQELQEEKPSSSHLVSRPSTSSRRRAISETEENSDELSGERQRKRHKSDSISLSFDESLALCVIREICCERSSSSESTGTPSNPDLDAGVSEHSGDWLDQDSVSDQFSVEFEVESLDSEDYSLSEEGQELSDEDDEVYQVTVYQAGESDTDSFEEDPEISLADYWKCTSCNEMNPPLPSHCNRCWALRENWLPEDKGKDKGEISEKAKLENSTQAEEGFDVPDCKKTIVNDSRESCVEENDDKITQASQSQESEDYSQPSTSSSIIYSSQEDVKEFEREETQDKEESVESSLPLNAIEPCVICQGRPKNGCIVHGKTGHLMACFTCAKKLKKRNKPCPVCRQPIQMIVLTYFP
UniProt O35625: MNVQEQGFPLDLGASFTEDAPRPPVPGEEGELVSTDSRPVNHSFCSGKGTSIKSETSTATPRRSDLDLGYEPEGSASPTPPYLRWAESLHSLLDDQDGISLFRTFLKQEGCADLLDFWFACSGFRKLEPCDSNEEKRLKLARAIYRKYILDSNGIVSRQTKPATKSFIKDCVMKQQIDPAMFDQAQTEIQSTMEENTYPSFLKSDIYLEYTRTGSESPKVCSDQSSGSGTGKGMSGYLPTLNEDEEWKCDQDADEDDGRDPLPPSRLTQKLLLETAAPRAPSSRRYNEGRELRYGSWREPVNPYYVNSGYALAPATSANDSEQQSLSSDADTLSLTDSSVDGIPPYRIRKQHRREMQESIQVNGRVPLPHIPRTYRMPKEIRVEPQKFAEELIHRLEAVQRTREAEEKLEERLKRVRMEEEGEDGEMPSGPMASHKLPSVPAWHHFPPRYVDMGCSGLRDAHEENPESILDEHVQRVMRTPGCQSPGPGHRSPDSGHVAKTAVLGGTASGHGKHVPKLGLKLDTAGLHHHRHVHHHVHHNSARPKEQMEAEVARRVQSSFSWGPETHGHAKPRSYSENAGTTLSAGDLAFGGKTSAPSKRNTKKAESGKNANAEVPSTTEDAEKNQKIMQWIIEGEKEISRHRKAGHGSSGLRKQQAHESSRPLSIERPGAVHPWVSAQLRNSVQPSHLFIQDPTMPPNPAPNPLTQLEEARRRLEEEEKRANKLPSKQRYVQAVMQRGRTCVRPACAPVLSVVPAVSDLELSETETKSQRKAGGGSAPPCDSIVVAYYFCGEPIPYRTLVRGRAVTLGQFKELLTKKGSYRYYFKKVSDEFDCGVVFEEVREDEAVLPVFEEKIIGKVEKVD

These are yes or no findings as the source states them, for the method shown. In cells and extracts the contact can be indirect. A result given as binding can be weak or reduced; the word gives no strength.

Consider Myc-MDM2 (from UniProt Q00987-11 1-497), for which the binding entry was “binds”.

On to “Axin (untagged), expressed in HEK 293T cells (from UniProt O35625 1-863)”, for which the binding entry was “binds”.

(Values after paper PMC3694902.)
